Experimental data taken from patent publication US9907857B2, “Peptide having cell membrane penetrating activity” (EWHA UNIVERSITY-INDUSTRY COLLABORATION FOUNDATION, priority 2006, dated 2018).
Some results were stated once for a whole list of compounds, not compound by compound. Some ranges recur; such a range may be that of the whole group of compounds.

Test system: HeLa cells
Test: Intracellular translocation of alanine substituents of TCTP(1-9), microplate fluorescence reader
Assay type: cell-based
Settings: 2 hours, sensitivity 75 (FIG. 5)
Method: N-terminus of each peptide was labeled with fluorescence dye, rhodamine and C-terminus was protected. Peptide purity (>95%) was determined by HPLC. Synthesis of peptides of present invention was requested to PEPTRON, Inc.
HeLa cell line was propagated in DMEM supplemented with 10% FBS and 100 units/mL penicillin-streptomycin. Cells were grown in a 5% CO2 incubator at 37° C.
HeLa cells were cultured in 48-well plate until they were 70˜80% grown up before a day of the experiment. […]
After the incubation, the cells were washed in cool PBS three times and immediately measured by a microplate fluorescence reader at emission 530 nm and excitation 590 nm for a measurement of rhodamine of intracellular uptake marker. The sensitivity of reader was set at 100 as a basic, but was lowered to 75 if fluorescent signals were strong. […]
Meanwhile, when the sensitivity of KC4 plate reader was set down to 75, we could not analyze the result of cell penetrating activity at relatively low concentration of 1 or 10 μM, so sensitivity of reader was fixed at 100 (FIG. 6). At this time, because fluorescence intensity at 100 μM was very strong, we could not express in a same graph.

MIIARDLIS (mutant peptide based on human sequence; (1)..(9) TCTP(1-9)Y4A) [SEQ ID No.: 11]
decline in uptake, fluorescence intensity of TCTP (1-9) at 100 μM set to 100%: 80-90%
